This test addresses Flag-GFP-XPC (knock-in, HCT116) (human (endogenous in HCT116)) (UniProt Q01831). In words: co-IP; GFP-Trap beads on GFP-XPC from 1% formaldehyde-crosslinked, sonicated nuclear lysate (RIPA buffer) of GFP-XPC KI HCT116 cells; cells treated with 600 uM oxaliplatin or cisplatin for 2, 4 or 6 h or 30 J/m^2 UV-C and 30 min repair; overnight at 4 C; crosslinks reverted, immunoblot.

The chains behind the UniProt entries cited, without tags or fusion partners.
UniProt Q01831: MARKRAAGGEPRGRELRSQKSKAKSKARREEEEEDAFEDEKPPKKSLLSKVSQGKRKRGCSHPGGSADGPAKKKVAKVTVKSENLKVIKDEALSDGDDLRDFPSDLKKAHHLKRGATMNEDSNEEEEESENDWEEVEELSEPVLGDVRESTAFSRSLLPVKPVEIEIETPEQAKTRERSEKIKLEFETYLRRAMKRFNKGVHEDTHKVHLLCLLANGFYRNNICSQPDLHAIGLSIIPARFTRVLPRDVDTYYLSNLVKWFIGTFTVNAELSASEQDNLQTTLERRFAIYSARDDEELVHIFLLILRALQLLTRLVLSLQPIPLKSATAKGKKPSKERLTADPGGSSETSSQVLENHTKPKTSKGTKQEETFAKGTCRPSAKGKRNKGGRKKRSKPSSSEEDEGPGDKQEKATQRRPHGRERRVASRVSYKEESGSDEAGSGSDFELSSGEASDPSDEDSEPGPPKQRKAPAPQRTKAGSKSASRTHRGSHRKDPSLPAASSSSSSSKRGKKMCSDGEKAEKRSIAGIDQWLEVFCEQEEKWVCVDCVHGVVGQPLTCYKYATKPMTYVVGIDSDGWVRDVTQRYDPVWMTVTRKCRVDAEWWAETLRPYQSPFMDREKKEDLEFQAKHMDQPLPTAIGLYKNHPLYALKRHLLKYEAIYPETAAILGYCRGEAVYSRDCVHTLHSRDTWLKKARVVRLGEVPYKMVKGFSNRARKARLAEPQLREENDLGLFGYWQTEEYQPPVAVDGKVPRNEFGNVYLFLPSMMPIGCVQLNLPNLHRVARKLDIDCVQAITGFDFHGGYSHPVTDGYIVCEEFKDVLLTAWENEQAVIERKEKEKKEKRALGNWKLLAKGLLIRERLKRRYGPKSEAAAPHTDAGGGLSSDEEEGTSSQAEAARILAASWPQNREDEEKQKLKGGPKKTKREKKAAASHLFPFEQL
UniProt Q92466: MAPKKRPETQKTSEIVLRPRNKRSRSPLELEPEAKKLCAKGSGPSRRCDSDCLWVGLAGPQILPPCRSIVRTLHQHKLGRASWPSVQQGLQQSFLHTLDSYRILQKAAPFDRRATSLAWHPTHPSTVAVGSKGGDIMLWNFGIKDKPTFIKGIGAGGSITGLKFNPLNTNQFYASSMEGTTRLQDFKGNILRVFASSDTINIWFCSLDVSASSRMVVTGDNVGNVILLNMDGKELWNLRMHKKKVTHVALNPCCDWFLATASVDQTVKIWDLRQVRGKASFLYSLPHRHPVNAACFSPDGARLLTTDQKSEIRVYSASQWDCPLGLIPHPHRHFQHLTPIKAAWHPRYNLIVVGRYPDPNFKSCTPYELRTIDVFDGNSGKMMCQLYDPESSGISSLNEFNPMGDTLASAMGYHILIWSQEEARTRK

Consider one substance from publication PMC10696645.

No constants are given. Whether binding was seen depends on the method and setting. In cells and extracts the contact can be indirect. Some binding calls cover weakened binding; strength is not graded here.

For DDB2 (from UniProt Q92466 1-427), the binding entry is “binds”.
